Experimental findings from article PMC10313831 are described below.

Chains of the proteins cited; added tags and fusions are not shown. Chains listed by the source or under a name are the forms on record and can include a tag or linker.
RPA (Rfa1-Rfa2-Rfa3) (Saccharomyces cerevisiae), one chain, as listed by the source, chain 3 of 3: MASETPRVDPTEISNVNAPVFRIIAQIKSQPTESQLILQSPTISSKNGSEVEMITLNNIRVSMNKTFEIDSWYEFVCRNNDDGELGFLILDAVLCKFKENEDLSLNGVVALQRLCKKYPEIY
RPA (Rfa1-Rfa2-Rfa3) (Saccharomyces cerevisiae), one chain, as listed by the source, chain 1 of 3: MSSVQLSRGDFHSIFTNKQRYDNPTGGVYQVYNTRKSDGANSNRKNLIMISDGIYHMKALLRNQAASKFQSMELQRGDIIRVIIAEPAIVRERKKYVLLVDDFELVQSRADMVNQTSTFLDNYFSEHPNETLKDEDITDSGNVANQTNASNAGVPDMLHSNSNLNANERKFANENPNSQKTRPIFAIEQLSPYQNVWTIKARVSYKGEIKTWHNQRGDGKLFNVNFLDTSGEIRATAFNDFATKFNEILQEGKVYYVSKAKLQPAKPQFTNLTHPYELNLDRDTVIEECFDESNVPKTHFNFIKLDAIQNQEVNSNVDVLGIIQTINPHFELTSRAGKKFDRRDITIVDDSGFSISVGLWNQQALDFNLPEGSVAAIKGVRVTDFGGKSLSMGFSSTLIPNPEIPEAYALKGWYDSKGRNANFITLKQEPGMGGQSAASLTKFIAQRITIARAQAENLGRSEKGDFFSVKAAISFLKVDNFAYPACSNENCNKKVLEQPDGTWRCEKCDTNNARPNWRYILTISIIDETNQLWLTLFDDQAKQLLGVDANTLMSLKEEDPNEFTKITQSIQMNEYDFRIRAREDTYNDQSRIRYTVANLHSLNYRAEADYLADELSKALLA
RPA (Rfa1-Rfa2-Rfa3) (Saccharomyces cerevisiae), one chain, as listed by the source, chain 2 of 3: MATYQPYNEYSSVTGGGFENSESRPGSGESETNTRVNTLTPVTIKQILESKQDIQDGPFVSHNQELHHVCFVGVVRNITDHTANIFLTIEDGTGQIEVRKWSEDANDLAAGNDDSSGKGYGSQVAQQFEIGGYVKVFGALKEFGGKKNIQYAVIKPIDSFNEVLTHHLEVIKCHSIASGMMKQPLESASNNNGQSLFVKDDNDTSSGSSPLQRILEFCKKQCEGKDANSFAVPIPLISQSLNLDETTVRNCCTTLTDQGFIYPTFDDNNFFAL

This data set deals with RPA (Rfa1-Rfa2-Rfa3) (Saccharomyces cerevisiae). Kind of data set: EMSA. To be noted: EMSA: 20 mM Tris-HCl pH 7.5, 150 (or 15) mM KCl, 1 mM DTT, 100 ug/mL BSA, 5 nM DNA, 30 C 10 min, recombinant protein, protein details: His tag (MST: His-tagged RPA, RED-tris-NTA dye), single-stranded DNA.
[1] abbreviates: 15 mM KCl, similar to 150 mM, label: 5'-32P.

For at least one entry, the source does not settle the construct or the ends of the probe. At least one verdict rests on a figure or table, not on a statement of the authors.

“TTTTTTTTTTTTTTTTTTTTTTTTTTTTTTTTTTTTTTTTTTTTTTTTTTTTTTTTTTTT [dT(60)]”: the binding result under setting [1] is reported as “binds”.

“TTTTTTTTTTTTTTTTTTTTTTTTTTTTTTTTTTTTTTTTTTTTTTTTTT [dT(50)]”: the binding result under setting [1] is “binds”.

Regarding TTTTTTTTTTTTTTTTTTTT [dT(20)], under setting [1], the binding result is “binds”.

For “TTTTTTTTTTTTTTTTTTTTTTTTTTTTTTTTTTTTTTTT [dT(40)]”, under setting [1], the binding result is reported as “binds”.

“TTTTTTTTTTTTTTTTTTTTTTTTTTTTTTTTTTTTTT [dT(38)]”: the binding result (below 40-nt minimum for second RPA, label: 5'-32P) was “binds”.

Take “TTTTTTTTTTTTTTTTTTTTTTTTTTTTTTTTTTTTTTTTTTTTTTTTTTTT [dT(52)]”: the binding result (below 54-nt minimum for third RPA, label: 5'-32P) is on record as “binds”.

On to TTTTTTTTTTTTTTTTTTTTTTTTTTTTTT [dT(30)], for which the binding result (15 mM KCl, similar to 150 mM, label: 5'-32P (EMSA), unlabeled (MST)) is given as “binds”.
